Measured values from patent US10064858B2, “Methods and compositions for treating bacterial infections with iron chelators” (THE UNITED STATES OF AMERICA, AS REPRESENTED BY THE …, priority 2011, dated 2018).
Some entries share one result that the patent states for a list of compounds.

Tested on: Staphylococcus aureus, Acinetobacter baumannii, Escherichia coli, Pseudomonas aeruginosa, and Klebsiella pneumoniae
Assay: MIC, summary over species
Assay type: cell-based
Conditions: for MIC (range over species): five species; for MIC improved: media that better represents iron levels in the human body

| Structure (SMILES) | MIC (range over species) [µg/mL] | MIC improved [fold] |
| --- | --- | --- |
| Cc1c(O)c(=O)ccn1C [ApoL1, 3-hydroxy-1,2-dimethyl-4(1H)-pyridone] | 100 to 500 | 2 to 4 |
| OCCN1CCN(Cc2ccc(O)c3ncccc23)CC1 [VK28, 5-(4-(2-hydroxyethyl)piperazin-1-ylmethyl)-8-hydroxyquinoline] | 100 to 500 | 2 to 4 |
